This note sets out measurements from publication PMC4621513.

Amino acid sequences for entries named in this document (tags omitted). A change or cut given only in a name is not applied to a line headed by its entry.
UniProt Q9HC16: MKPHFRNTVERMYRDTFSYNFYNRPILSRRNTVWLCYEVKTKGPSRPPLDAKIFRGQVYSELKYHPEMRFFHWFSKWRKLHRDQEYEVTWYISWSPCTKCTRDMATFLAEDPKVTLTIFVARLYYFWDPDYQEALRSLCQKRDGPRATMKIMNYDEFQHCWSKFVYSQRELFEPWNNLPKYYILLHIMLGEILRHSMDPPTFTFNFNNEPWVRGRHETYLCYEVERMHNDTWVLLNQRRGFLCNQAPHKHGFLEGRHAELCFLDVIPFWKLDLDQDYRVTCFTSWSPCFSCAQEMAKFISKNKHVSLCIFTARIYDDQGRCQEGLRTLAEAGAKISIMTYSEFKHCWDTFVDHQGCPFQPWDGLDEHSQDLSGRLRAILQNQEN

For the data set, the target named is APOBEC3G (A3G) (UniProt Q9HC16). The experiment in a line: AFM force spectroscopy. The conditions noted are these: two-mode binding eliminated with 27 nt; 5' thiol; Force spectroscopy probing buffer: 50 mM HEPES, 100 mM NaCl, 5 mM MgCl2, 1 mM DTT (pH and temperature not given); recombinant protein; residues 1-384; protein details: mycHis (C-terminal); single-stranded DNA.

Construct, isoform or probe ends are uncertain for at least one entry. At least one verdict was read from the data and is not stated in words by the source.

“TTTTAAAGAGAAAAACCCAAAAGTGAA [27 nt deaminase specific ssDNA]”: the binding result is “binds”.
